Some entries share one result that the patent states for a list of compounds.
Tests used:
[1] = 1H NMR titration with octyloxy pyranoside α-Glc; conditions: CD2Cl2, 298 K, 1:1 binding
[2] = 1H NMR titration with octyloxy pyranoside β-Gal; type: binding; conditions: CD2Cl2, 298 K

Row | Structure (SMILES) | Ka with α-Glc [1] | Ka with β-Gal [2]
1 | c1coc(CNCc2cc(CNCc3ccco3)cc(-c3cc(CNCc4ccco4)cc(CNCc4ccco4)c3)c2)c1 [SCR002, 1,1′,1″,1′″-([1,1′-biphenyl]-3,3′,5,5′-tetrayl)tetrakis(N-(furan-2-ylmethyl)methanamine)] | < 30 M⁻¹ | < 30 M⁻¹
2 | c1csc(CNCc2cc(CNCc3cccs3)cc(-c3cc(CNCc4cccs4)cc(CNCc4cccs4)c3)c2)c1 [SCR003, 1,1′,1″,1′″-([1,1′-biphenyl]-3,3′,5,5′-tetrayl)tetrakis(N-(thiophen-2-ylmethyl)methanamine)] | < 30 M⁻¹ | < 30 M⁻¹

Source: patent US12023323B2, “Carbohydrate-binding small molecules with antiviral activity” (priority 2018, dated 2024)
